Consider three substances from patent publication US8138307.

The chains behind the UniProt entries cited, without tags or fusion partners. Where a name states a change or a piece, a line headed by the entry shows the natural chain unless it says otherwise.
UniProt P21707: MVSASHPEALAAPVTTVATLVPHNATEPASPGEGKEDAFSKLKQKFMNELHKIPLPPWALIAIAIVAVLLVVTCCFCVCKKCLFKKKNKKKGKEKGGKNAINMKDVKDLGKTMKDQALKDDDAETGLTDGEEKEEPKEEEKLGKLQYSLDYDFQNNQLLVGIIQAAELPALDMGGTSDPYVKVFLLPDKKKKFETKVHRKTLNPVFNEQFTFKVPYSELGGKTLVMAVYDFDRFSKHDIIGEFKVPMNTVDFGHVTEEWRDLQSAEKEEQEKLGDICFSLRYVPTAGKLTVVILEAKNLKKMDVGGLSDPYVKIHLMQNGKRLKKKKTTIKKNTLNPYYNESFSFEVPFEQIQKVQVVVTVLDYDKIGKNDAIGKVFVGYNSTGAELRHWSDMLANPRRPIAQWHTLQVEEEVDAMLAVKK
UniProt Q9BT88: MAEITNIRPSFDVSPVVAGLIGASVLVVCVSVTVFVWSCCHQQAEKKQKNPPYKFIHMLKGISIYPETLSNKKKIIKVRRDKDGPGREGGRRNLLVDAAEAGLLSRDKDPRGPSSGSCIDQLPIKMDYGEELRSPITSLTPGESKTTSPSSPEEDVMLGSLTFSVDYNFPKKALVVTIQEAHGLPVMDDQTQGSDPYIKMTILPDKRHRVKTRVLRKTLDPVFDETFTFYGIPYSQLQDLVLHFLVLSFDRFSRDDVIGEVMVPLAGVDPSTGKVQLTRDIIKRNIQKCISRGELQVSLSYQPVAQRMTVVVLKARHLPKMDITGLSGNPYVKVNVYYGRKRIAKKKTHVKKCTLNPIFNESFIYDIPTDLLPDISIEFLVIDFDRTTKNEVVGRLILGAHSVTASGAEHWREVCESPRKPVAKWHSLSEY
UniProt P21579: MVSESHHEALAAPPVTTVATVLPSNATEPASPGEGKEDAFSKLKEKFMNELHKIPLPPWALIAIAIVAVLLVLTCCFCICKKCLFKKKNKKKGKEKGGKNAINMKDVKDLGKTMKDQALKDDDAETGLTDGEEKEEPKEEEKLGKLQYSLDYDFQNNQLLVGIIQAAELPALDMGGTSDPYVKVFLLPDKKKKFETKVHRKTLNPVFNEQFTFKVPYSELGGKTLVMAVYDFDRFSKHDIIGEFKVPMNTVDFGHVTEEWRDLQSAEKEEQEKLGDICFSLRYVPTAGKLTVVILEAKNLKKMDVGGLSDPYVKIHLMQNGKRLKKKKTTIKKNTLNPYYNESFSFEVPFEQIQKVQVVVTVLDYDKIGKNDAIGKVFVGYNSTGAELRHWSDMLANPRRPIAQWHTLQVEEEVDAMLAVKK
UniProt Q9JK66: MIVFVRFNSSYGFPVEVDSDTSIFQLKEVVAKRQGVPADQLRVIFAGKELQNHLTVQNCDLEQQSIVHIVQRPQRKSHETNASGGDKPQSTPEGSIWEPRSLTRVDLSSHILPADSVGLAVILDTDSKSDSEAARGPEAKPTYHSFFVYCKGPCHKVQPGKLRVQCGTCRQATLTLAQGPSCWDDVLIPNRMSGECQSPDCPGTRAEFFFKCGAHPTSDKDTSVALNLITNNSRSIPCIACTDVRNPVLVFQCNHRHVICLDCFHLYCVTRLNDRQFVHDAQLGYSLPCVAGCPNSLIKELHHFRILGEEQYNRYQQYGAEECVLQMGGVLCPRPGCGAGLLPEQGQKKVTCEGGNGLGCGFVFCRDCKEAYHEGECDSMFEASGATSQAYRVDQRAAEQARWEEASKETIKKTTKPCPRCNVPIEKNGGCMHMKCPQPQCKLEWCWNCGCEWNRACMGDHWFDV
UniProt O60260: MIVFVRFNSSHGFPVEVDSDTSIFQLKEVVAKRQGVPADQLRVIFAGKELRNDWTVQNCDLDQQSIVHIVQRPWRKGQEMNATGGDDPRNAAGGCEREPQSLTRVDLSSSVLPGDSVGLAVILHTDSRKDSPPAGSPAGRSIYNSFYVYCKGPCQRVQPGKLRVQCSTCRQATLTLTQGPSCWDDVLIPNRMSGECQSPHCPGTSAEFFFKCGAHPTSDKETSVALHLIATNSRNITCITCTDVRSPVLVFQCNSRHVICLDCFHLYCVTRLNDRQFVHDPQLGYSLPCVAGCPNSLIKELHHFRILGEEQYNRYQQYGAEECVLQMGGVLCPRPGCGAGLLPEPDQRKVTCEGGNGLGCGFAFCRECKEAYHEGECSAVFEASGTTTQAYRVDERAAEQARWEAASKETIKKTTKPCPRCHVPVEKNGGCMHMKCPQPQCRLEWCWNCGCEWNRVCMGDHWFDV

Assay [1] concerns the target endogenous synaptotagmin 1 in PC12 cells (UniProt P21707). The experiment in a line: co-immunoprecipitation from PC12 extract with mouse anti-syt1.
Assay [2] has as its target endogenous synaptotagmin XI in human cerebral cortex extract (human) (UniProt Q9BT88). Briefly: co-immunoprecipitation from human cerebral cortex extract, both directions.
For assay [3] the target is unchanged. The experiment in a line: co-immunoprecipitation from human cerebral cortex extract with rabbit anti-parkA.
The target in assay [4] is T1, full length synapsin-like protein (SLP), GFP fusion (human).
T1 sequence: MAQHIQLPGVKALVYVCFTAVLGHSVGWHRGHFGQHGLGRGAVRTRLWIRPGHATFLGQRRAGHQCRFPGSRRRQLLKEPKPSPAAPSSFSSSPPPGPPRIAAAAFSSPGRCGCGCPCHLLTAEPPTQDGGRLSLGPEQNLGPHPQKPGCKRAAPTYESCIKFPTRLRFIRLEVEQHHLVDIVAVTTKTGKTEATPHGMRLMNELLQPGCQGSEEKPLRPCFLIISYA
The experiment in a line: co-immunoprecipitation.

Assay [5] has as its target myc-syt1 (syt1 cDNA in the pCMV-myc expression plasmid) (human) (UniProt P21579). The experiment in a line: co-immunoprecipitation with anti-HA-agarose from 293T extracts, anti-myc blot.

Results are given in words; binding and its absence hold for the method and conditions named. In cells and extracts the contact can be indirect. Some results given as binding are weak or reduced against the parent protein; the word gives no strength. For some assays here: Sequences can lack the tags named with a protein.

On to “endogenous parkin in PC12 cells (from UniProt Q9JK66 1-465) (enzyme)”, for which the binding entry in assay [1] is reported as “binds”.

For “endogenous parkin in human cerebral cortex extract (from UniProt O60260 1-465) (enzyme)”, the binding result in assay [2] and in assay [3] was “binds” each time.

As for “hemaglutinin-parkin (HA-parkin), full-length wild type (from UniProt O60260 1-465) (enzyme)”, the binding entry in assay [4] and in assay [5] was “binds” in each case.
